Data taken from ChEMBL document CHEMBL3988442, “University of Dundee, Small-Polar-MMV Screening Library” (2021).

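Viability assay of Plasmodium falciparum sporozoites; the read-out is not stated. The concentration is filed as 10 mM, unlikely as a test dose, so the dose is not known. The record gives no direction; compounds that gave an IC50 in retests scored well above the rest, so higher reads as lower viability. Strong results were mostly tested again. About 34,000 compounds were tested under these conditions; 0.84% (about 280) showed 50% or more at least once.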

The filed quantity is “Percent Effect” (%). The controls that fix the scale are not given in the record; negative values are as filed. This is an unselected part of the compounds tested. Two or more numbers in one place are separate tests of the same structure; such repeats can differ widely.

| # | structure | Percent Effect |
|---|---|---|
| 1 | `Cc1noc(C2CCN(C(=O)Nc3ccc(N(C)C)nc3)CC2)n1` | 63.01% and 33.92% and 30.08% |
| 2 | `COCCNc1c(C#N)c2c(c3nncn13)CN(C)CC2` | -7.72% |
| 3 | `Cc1ccc(OCCC(=O)N2CCC(c3nncn3C)CC2)c(C)c1` | -2.524% and 9.081% and -9.674% |
| 4 | `Cc1nn(C)c(Cl)c1C1CCCN1C(=O)c1cnccn1` (stereo unspecified) | -7.293% |
| 5 | `O=c1ccc2c(n1CC1CC1)CCN(c1ncccn1)CC2` | 9.532% |
| 6 | `COCC(=O)N1CCC2(CC1)COc1ccccc1S(=O)(=O)N(C)C2` | 1.316% |
| 7 | `Cn1cc(C2=NOC(C(=O)NC3(c4ccccc4)CCCC3)C2)cn1` (stereo unspecified) | 2.201% |
| 8 | `CN(C)C(=O)c1ccc2c(c1)N(C)C(CC(=O)NC(C)(C)CO)CO2` (stereo unspecified) | -1.792% |
| 9 | `Cc1nc2ccccc2c(=O)n1CCC(=O)N1CCNC(=O)C1` | 4.452% |
| 10 | `CCN1CC2(CC1=O)CN(C(=O)c1ccco1)CCN(C(=O)N(C)C)C2` (stereo unspecified) | -14.13% |
| 11 | `O=C(NCCCO)Nc1cnc2cc(Cl)ccc2c1O` | 0.8505% |
| 12 | `CCCOCC(=O)NS(=O)(=O)c1ccc2c(c1)OCCCO2` | 8.394% |
| 13 | `CCN1CCCC(O)(CNCc2ccccc2F)C1` (stereo unspecified) | 17.19% |
| 14 | `Cc1cscc1C(=O)N1CCCC1CC(=O)c1cnn(C)c1` (stereo unspecified) | 5.089% |
| 15 | `Cc1cc(N2CCOCC(Cc3ccc4[nH]ccc4c3)C2)ncn1` (stereo unspecified) | -8.009% |
| 16 | `[H][C@]12CN(C(=O)OCCOC)CCN1C[C@@H](CO)[C@@H]2c1ccccc1` | -35.15% |
| 17 | `O=C(O)C(F)(F)F.[H][C@@]12CCCO[C@]1([H])[C@H](Oc1ncccc1F)CN2S(=O)(=O)CCC` | 2.596% |
| 18 | `Cc1nc(CN(C)CC2CCCN2c2cccnn2)oc1C` (stereo unspecified) | -4.013% |
| 19 | `COc1ncccc1C(=O)Nc1nc2c(s1)CN(S(=O)(=O)C1CC1)CC2` | 29.67% and -7.202% and 13.77% |
| 20 | `CCOc1nnc(CN(C)C2CCCN(c3cccnn3)C2)s1` (stereo unspecified) | -1.015% |
| 21 | `O=C1CCNc2ncc(-c3cccc(Cl)c3)cc2CN1C1CC1` | -43.87% |
| 22 | `Cc1nn(C)c(N(C)C)c1CNCC(O)c1ccccc1F` (stereo unspecified) | -5.53% |
| 23 | `Cc1nc(CN2CCCN(C(=O)C(C)OCC3CC3)CC2)cs1` (stereo unspecified) | -30.55% |
| 24 | `[H][C@@]12C[C@@H](C(=O)Nc3cccnc3)CN(Cc3nccs3)[C@]1([H])CCO2` | 4.38% |
| 25 | `CCc1ccsc1C(=O)N1CCN(C(=O)CC(F)(F)F)CC1` | -23.29% |
| 26 | `CN(Cc1ccsc1)C(=O)CN1CCOC(Cn2cncn2)C1` (stereo unspecified) | -4.321% |
| 27 | `Cc1cccc(N(CC(=O)N2CCCCC2)C(=O)C2CCCO2)c1` (stereo unspecified) | 1.404% |
| 28 | `Cc1nn(C)c(N2CCOCC2)c1CNCc1cccnc1` | -12.95% and -7.973% |
| 29 | `COCC(=O)N1CCC2(COCc3c(C)nc(N(C)C)nc32)C1` (stereo unspecified) | 2.954% |
| 30 | `CC1(C)CCC(C(=O)O)c2ccccc21` (stereo unspecified) | -1.446% |
| 31 | `CCOc1cc(/C=C/c2ncc(C(=O)O)s2)cc(Br)c1O` | -1.329% |
| 32 | `Cc1ncc2c(n1)CN(Cc1nc(Cc3ccccc3)no1)CC2` | -3.485% |
| 33 | `CCN(CC)S(=O)(=O)c1cccc(C(=O)N(C)Cc2ccsc2)c1` | 9.717% |
| 34 | `O=C(O)C(F)(F)F.O=C(c1ccco1)N1CCCC2(CCN(c3nncs3)C2)C1` (stereo unspecified) | 27.32% |
| 35 | `Cc1cccc(N2CCN(C(=O)CC3(O)CCCC3)C(C)C2)n1` (stereo unspecified) | -12.44% |
| 36 | `Cc1ccc(CN2CCOC(c3cnccn3)C2)s1` (stereo unspecified) | 3.571% |
| 37 | `CC(C)c1nc(C2CCCN2CC(=O)Nc2cccnc2)no1` (stereo unspecified) | 7.756% |
| 38 | `COc1cc(C(=O)N2CCCS2(=O)=O)ccc1C` | -16.91% |
| 39 | `Cc1nc(-c2ccsc2)ccc1C(=O)NCCC(=O)N1CCCC1` | 0.9893% |
| 40 | `CCCc1nc(CNCC2CCCN2c2cccnn2)no1` (stereo unspecified) | 6.769% |
| 41 | `O=C(CCn1ccc2ccc(Cl)cc21)NCc1ccc(C(=O)O)cc1` | -16.26% |
| 42 | `Cc1csc(N2CCCN(C(=O)C(C)n3cncn3)CC2)n1` (stereo unspecified) | 2.145% |
| 43 | `c1cn(-c2ccc(CN3CCOC(Cn4cncn4)C3)cc2)cn1` (stereo unspecified) | -0.1643% |
| 44 | `Cc1ccc(OCc2occc2C(=O)N2CC[C@H](CO)[C@@H](O)C2)cc1` | 3.893% |
| 45 | `c1cncc(CC2CN(c3cccnc3)CCO2)c1` (stereo unspecified) | -0.2809% |
| 46 | `CCc1ccc(OCC(O)CN2CCC(O)CC2)cc1` (stereo unspecified) | 6.012% |
| 47 | `O=c1c2ccc(C(F)(F)F)cc2ncn1CCCN1CCCCC1CO` (stereo unspecified) | 8.7% |
| 48 | `Cc1cc(C)c(C(=O)N2CCn3nc(C(=O)NCCN(C)C)cc3C2)[nH]1` | -11.36% and -14% |
| 49 | `O=C(NCCOc1ccc(Cl)cn1)Nc1cccnc1` | 9.123% |
| 50 | `FC(F)(F)C1CN(Cc2cccc(-c3ccccn3)c2)CCO1` (stereo unspecified) | -15.11% |
| 51 | `CN(C)CCCNCC1CCOC(C)(C)C1` (stereo unspecified) | 12.62% |
| 52 | `CS(=O)(=O)NCc1noc2c1CN(C(=O)C1CC1)CC2` | -8.945% |
| 53 | `O=C(O)C(F)(F)F.[H][C@@]12C[C@@H](c3nc(C)no3)CN(S(=O)(=O)c3cccnc3)[C@]1([H])CCO2` | -1.59% |
| 54 | `CN(C(=O)Cc1ccn(C)c1)C1CCCN(C2Cc3ccccc3C2)C1` (stereo unspecified) | -4.474% |
| 55 | `O=C(Cc1cccs1)NCC(=O)Nc1cn[nH]c1` | -0.7684% |
| 56 | `Cc1cnn(CC2CCCCN2C(=O)c2ccc3[nH]nnc3c2)c1` (stereo unspecified) | -4.855% |
| 57 | `CN(C)S(=O)(=O)N1CCC(Oc2ccc(C#N)cn2)CC1` | -16.2% |
| 58 | `Cc1nn(CC(C)C)c(N(C)C)c1CNCc1cccnc1N(C)C` | 0% |
| 59 | `Cc1ccccc1-n1ncc(C(=O)N2CCCC2c2cnn(C)c2)c1C` (stereo unspecified) | -7.769% |
| 60 | `CCN(CC)c1ccc(C(=O)N2CCCC(n3cncn3)C2)cn1` (stereo unspecified) | 4.201% |
| 61 | `Cc1ccc2cnn(CCC(=O)Nc3c(C)nn(C)c3C)c2c1` | 0.4362% |
| 62 | `CC(=O)NCC(=O)N1Cc2nccn2CC(COc2cccnc2)C1.O=C(O)C(F)(F)F` (stereo unspecified) | 3.879% |
| 63 | `O=C(O)C(F)(F)F.[H][C@@]12C[C@H](C(=O)N3CCCCO3)CN(Cc3ccc(F)cc3)[C@]1([H])CCO2` | 4.381% |
| 64 | `Cc1cc(C)n(CC2CN(CCOc3cccc(C#N)c3)CCO2)n1` (stereo unspecified) | 0.7335% |
| 65 | `Cc1ccc(C(=O)NCC(C)Cn2cccn2)c(=O)[nH]1` (stereo unspecified) | 34.28% and 18.16% and 27.69% |
| 66 | `O=C(O)C(F)(F)F.[H][C@@]12C[C@H](C(=O)N3CCCCO3)CN(Cc3ccccc3C)[C@]1([H])CCO2` | -0.945% |
| 67 | `COc1cc(N2CC[C@H](O)[C@@H]2Cc2cnn(C)c2)ncn1` | -16.69% |
| 68 | `[H][C@@]12CCN(S(=O)(=O)CC)[C@]1([H])CCC(=O)N2CCOC` | 3.327% |
| 69 | `CN(CC1(O)CCN(c2ccnc3ccncc23)CC1)C(=O)CCN` | 6.088% |
| 70 | `CCCn1nc2c(cc1=O)CN(Cc1cc(C)on1)CC2` | -18.26% |
| 71 | `CCc1ccc(CCC(=O)N2CCOCC2c2ncon2)cc1` (stereo unspecified) | -10.61% |
| 72 | `COc1ccc(N2CCC(C(=O)/N=c3/[nH]ccs3)CC2)nn1` | -16.23% |
| 73 | `CCN1CC2(CCCCN2C(=O)c2ccn(C)n2)CC1=O` (stereo unspecified) | 2.566% |
| 74 | `CCOc1cc(CNc2nnn(C)n2)ccc1OCc1ccc(Cl)cc1` | -1.343% |
| 75 | `CN1CCOCC12CCN(Cc1ccoc1)CC2.O=C(O)C(F)(F)F.O=C(O)C(F)(F)F` | 2.08% |
| 76 | `[H][C@]12CCCN(S(=O)(=O)c3ccc(Cl)s3)[C@@]1([H])CN(C(=O)C1CC1)C2` | 8.718% |